Reference: PubChem BioAssay AID330 (DTP/NCI, 2004)
The list shows only some results of the screen, not a fair sample: it is rich in T/C values a quarter to a half above the control, in often repeated tests (any T/C) and in doses without a T/C. Other doses and runs of a compound stand elsewhere. T/C is the treated group as % of the vehicle group. Some doses have a count of surviving animals in place of a T/C: the source files T/C as zero there, which appears to mark a toxic dose or a test without result, not a measured value. Some survivor counts are full or nearly so, which does not show that the dose was tolerated: survival well below the control is almost never listed, so the zero probably covers shortened survival too. Survivors were counted at the toxicity check, usually on the fifth day, unless a day is given; later deaths do not show. Schedule codes are those of the source, read here as Q, the interval in days (D) or hours (H), X, the number of doses. Some doses were run more than once; their values stand side by side, smallest first. Where survival is the endpoint, this PubChem deposit counts one and a half times the control or more as active, and values a quarter to a half above the control carry no call in these data; other NCI protocols may use other cut-offs. Some T/C values are followed by the survivors on the day toxicity was checked, most often the fifth; without a count, all were alive then.

Test system: P388 leukemia ip, CD2F1 mice, survival T/C
Experiment: NCI In Vivo Anticancer Drug Screen. Data for tumor model P388 Leukemia (intraperitoneal) in CD2F1 (CDF1) mice
Settings: T/C endpoint: median survival time, higher T/C = longer survival
[1] = dose: 200.0 mg/kg/injection, schedule: Q01DX009 (ip), vehicle: Klucel (hydroxypropylcellulose) (HPC)
[2] = dose: 50.0 mg/kg/injection, schedule: Q01DX009 (ip), vehicle: Klucel (hydroxypropylcellulose) (HPC)
[3] = dose: 100.0 mg/kg/injection, schedule: Q01DX009 (ip), vehicle: Klucel (hydroxypropylcellulose) (HPC)

With `Cc1nnc2c(N)nccn12` the survivor count (dose: 400.0 mg/kg/injection, schedule: Q01DX001 (ip), vehicle: Klucel (hydroxypropylcellulose) (HPC)) was 0 of 6.
`COc1cccc(Oc2ccc(C)c[n+]2CC(C)=O)c1` was tested, and the survivor count (dose: 100.0 mg/kg/injection, schedule: Q01DX005 (ip), vehicle: saline with Tween-80) was 1 of 5.
`C1=CC2(C=CC13OCCO3)OCCO2` was tested, and the survivor count (dose: 200.0 mg/kg/injection, schedule: Q04DX003 (ip), vehicle: Klucel (hydroxypropylcellulose) (HPC)) was 3 of 6 and the survivor count (dose: 400.0 mg/kg/injection, schedule: Q04DX003 (ip), vehicle: Klucel (hydroxypropylcellulose) (HPC)) was 2 of 6.
In the case of `CC1=C(N2CC2)C(=O)c2ccccc2C1=O`, the survivor count [1] is reported as 2 of 6.
In the case of `CC(/C=C/C1(C)C(C)CCC(=O)C1C)=C\Cc1c(O)c(Cl)c(C)c(C=O)c1O` (stereo not given), the T/C (dose: 12.5 mg/kg/injection, schedule: Q01DX009 (ip), vehicle: Klucel (hydroxypropylcellulose) (HPC)) is reported as 126 % of control, the survivor count (dose: 25.0 mg/kg/injection, schedule: Q01DX009 (ip), vehicle: Klucel (hydroxypropylcellulose) (HPC)) is reported as 1 of 6 and 2 of 6 and the survivor count [2] is reported as 0 of 6. The survivor count [3] was 0 of 6 and the survivor count [1] was 0 of 6.
`Cc1ccc(S(=O)(=O)N(CCCc2c(-c3ccccc3)nc(N)[nH]c2=O)c2ccccc2)cc1` was tested, and the survivor count (dose: 30.0 mg/kg/injection, schedule: Q01DX005 (ip), vehicle: saline with Tween-80) was 6 of 6, the survivor count (dose: 120.0 mg/kg/injection, schedule: Q01DX005 (ip), vehicle: saline with Tween-80) was 6 of 6 and the survivor count (dose: 240.0 mg/kg/injection, schedule: Q01DX005 (ip), vehicle: saline with Tween-80) was 6 of 6.
For `CCCCN(CCCC)P1(=O)OP(=O)(N(CCCC)CCCC)OP(=O)(N(CCCC)CCCC)O1` (stereo not given), the survivor count (dose: 100.0 mg/kg/injection, schedule: Q01DX005 (ip), vehicle: saline) was 3 of 5 and the survivor count (dose: 200.0 mg/kg/injection, schedule: Q01DX005 (ip), vehicle: saline) was 0 of 5.
With `C1CCNCC1.COc1ccccc1C(=O)[CH-]C(=O)C(F)(F)F.COc1ccccc1C(=O)[CH-]C(=O)C(F)(F)F.COc1ccccc1C(=O)[CH-]C(=O)C(F)(F)F.COc1ccccc1C(=O)[CH-]C(=O)C(F)(F)F.[Eu+3]` the survivor count [3] was 6 of 6.
`CN(C)CCCNC(=O)c1ccc2c(c1)C(=O)c1ccccc1C2=O` was tested, and the survivor count (dose: 400.0 mg/kg/injection, schedule: Q04DX003 (ip), vehicle: water) was 0 of 6.
In the case of `C/C=c1/[nH]c(=O)/c(=C\C=C\c2ccccc2)[nH]c1=O`, the survivor count [1] is reported as 6 of 6 and the survivor count (dose: 400.0 mg/kg/injection, schedule: Q01DX009 (ip), vehicle: Klucel (hydroxypropylcellulose) (HPC)) is reported as 5 of 6.
With `C1=C[N]2c3c4c(ccc3=C1)=CC=C[N]4[Ga]2[c]1ccccc1` the T/C [2] was 126 % of control [5 of 6 alive].
